These are yes or no findings as the source states them, for the method shown. In cells and extracts the contact can be indirect. Some results given as binding are weak or reduced against the parent protein; the word gives no strength. For some of these results: Tags and fused reporters may be left off the sequences shown.
B1: GFP-DLGAP5 (protein, UniProt Q15398 1-846)
chain: MSSSHFASRHRKDISTEMIRTKIAHRKSLSQKENRHKEYERNRHFGLKDVNIPTLEGRILVELDETSQGLVPEKTNVKPRAMKTILGDQRKQMLQKYKEEKQLQKLKEQREKAKRGIFKVGRYRPDMPCFLLSNQNAVKAEPKKAIPSSVRITRSKAKDQMEQTKIDNESDVRAIRPGPRQTSEKKVSDKEKKVVQPVMPTSLRMTRSATQAAKQVPRTVSSTTARKPVTRAANENEPEGKVPSKGRPAKNVETKPDKGISCKVDSEENTLNSQTNATSGMNPDGVLSKMENLPEINTAKIKGKNSFAPKDFMFQPLDGLKTYQVTPMTPRSANAFLTPSYTWTPLKTEVDESQATKEILAQKCKTYSTKTIQQDSNKLPCPLGPLTVWHEEHVLNKNEATTKNLNGLPIKEVPSLERNEGRIAQPHHGVPYFRNILQSETEKLTSHCFEWDRKLELDIPDDAKDLIRTAVGQTRLLMKERFKQFEGLVDDCEYKRGIKETTCTDLDGFWDMVSFQIEDVIHKFNNLIKLEESGWQVNNNMNHNMNKNVFRKKVVSGIASKPKQDDAGRIAARNRLAAIKNAMRERIRQEECAETAVSVIPKEVDKIVFDAGFFRVESPVKLFSGLSVSSEGPSQRLGTPKSVNKAVSQSRNEMGIPQQTTSPENAGPQNTKSEHVKKTLFLSIPESRSSIEDAQCPGLPDLIEENHVVNKTDLKVDCLSSERMSLPLLAGGVADDINTNKKEGISDVVEGMELNSSITSQDVLMSSPEKNTASQNSILEEGETKISQSELFDNKSLTTECHLLDSPGLNCSNPFTQLERRHQEHARHISFGGNLITFSPLQPGEF
B2: USP11 M3 region (amino acids 504-963) (domain or fragment, UniProt P51784 504-963)
chain: DPRRKPEQHRLVVPKKGKISDLCVALSKHTGISPERMMVADVFSHRFYKLYQLEEPLSSILDRDDIFVYEVSGRIEAIEGSREDIVVPVYLRERTPARDYNNSYYGLMLFGHPLLVSVPRDRFTWEGLYNVLMYRLSRYVTKPNSDDEDDGDEKEDDEEDKDDVPGPSTGGSLRDPEPEQAGPSSGVTNRCPFLLDNCLGTSQWPPRRRRKQLFTLQTVNSNGTSDRTTSPEEVHAQPYIAIDWEPEMKKRYYDEVEAEGYVKHDCVGYVMKKAPVRLQECIELFTTVETLEKENPWYCPSCKQHQLATKKLDLWMLPEILIIHLKRFSYTKFSREKLDTLVEFPIRDLDFSEFVIQPQNESNPELYKYDLIAVSNHYGGMRDGHYTTFACNKDSGQWHYFDDNSVSPVNENQIESKAAYVLFYQRQDVARRLLSPAGSSGAPASPACSSPPSSEFMDVN
B3: DLGAP5-NT (amino acids 1-300) (domain or fragment, UniProt Q15398 1-300)
chain: MSSSHFASRHRKDISTEMIRTKIAHRKSLSQKENRHKEYERNRHFGLKDVNIPTLEGRILVELDETSQGLVPEKTNVKPRAMKTILGDQRKQMLQKYKEEKQLQKLKEQREKAKRGIFKVGRYRPDMPCFLLSNQNAVKAEPKKAIPSSVRITRSKAKDQMEQTKIDNESDVRAIRPGPRQTSEKKVSDKEKKVVQPVMPTSLRMTRSATQAAKQVPRTVSSTTARKPVTRAANENEPEGKVPSKGRPAKNVETKPDKGISCKVDSEENTLNSQTNATSGMNPDGVLSKMENLPEINTAK
B4: endogenous DLGAP5 (protein, UniProt Q15398 1-846)
chain: MSSSHFASRHRKDISTEMIRTKIAHRKSLSQKENRHKEYERNRHFGLKDVNIPTLEGRILVELDETSQGLVPEKTNVKPRAMKTILGDQRKQMLQKYKEEKQLQKLKEQREKAKRGIFKVGRYRPDMPCFLLSNQNAVKAEPKKAIPSSVRITRSKAKDQMEQTKIDNESDVRAIRPGPRQTSEKKVSDKEKKVVQPVMPTSLRMTRSATQAAKQVPRTVSSTTARKPVTRAANENEPEGKVPSKGRPAKNVETKPDKGISCKVDSEENTLNSQTNATSGMNPDGVLSKMENLPEINTAKIKGKNSFAPKDFMFQPLDGLKTYQVTPMTPRSANAFLTPSYTWTPLKTEVDESQATKEILAQKCKTYSTKTIQQDSNKLPCPLGPLTVWHEEHVLNKNEATTKNLNGLPIKEVPSLERNEGRIAQPHHGVPYFRNILQSETEKLTSHCFEWDRKLELDIPDDAKDLIRTAVGQTRLLMKERFKQFEGLVDDCEYKRGIKETTCTDLDGFWDMVSFQIEDVIHKFNNLIKLEESGWQVNNNMNHNMNKNVFRKKVVSGIASKPKQDDAGRIAARNRLAAIKNAMRERIRQEECAETAVSVIPKEVDKIVFDAGFFRVESPVKLFSGLSVSSEGPSQRLGTPKSVNKAVSQSRNEMGIPQQTTSPENAGPQNTKSEHVKKTLFLSIPESRSSIEDAQCPGLPDLIEENHVVNKTDLKVDCLSSERMSLPLLAGGVADDINTNKKEGISDVVEGMELNSSITSQDVLMSSPEKNTASQNSILEEGETKISQSELFDNKSLTTECHLLDSPGLNCSNPFTQLERRHQEHARHISFGGNLITFSPLQPGEF

Sequences of proteins named here, by UniProt entry; tags and fusion partners are left off. A change or cut given only in a name is not applied to a line headed by its entry. Residues count along the entry.
UniProt P01106: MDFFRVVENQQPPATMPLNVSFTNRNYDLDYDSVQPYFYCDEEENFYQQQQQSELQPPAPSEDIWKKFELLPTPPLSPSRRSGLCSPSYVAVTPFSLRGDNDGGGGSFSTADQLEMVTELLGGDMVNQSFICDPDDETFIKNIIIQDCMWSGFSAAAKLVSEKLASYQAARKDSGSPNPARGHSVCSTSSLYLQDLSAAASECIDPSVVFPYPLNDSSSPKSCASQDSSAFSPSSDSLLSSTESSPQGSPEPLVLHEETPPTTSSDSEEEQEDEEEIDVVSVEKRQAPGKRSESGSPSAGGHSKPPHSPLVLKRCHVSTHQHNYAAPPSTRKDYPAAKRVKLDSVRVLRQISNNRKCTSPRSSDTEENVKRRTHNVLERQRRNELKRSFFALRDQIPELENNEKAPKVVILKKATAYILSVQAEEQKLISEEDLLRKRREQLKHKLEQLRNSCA
endogenous MYC (human (endogenous in UM-UC-3)): residues 16-454 of P01106
MYC N-terminal region (amino acids 1-221): residues 16-236 of P01106
MYC C-terminal region (amino acids 220-439): residues 235-454 of P01106

Assays:
[1] = target: GST-MYC protein (UniProt P01106); experiment: pull-down; lysate of transfected 293T cells incubated overnight with 2 µg GST or GST-MYC protein, then glutathione magnetic beads 2 h; Western blot; only the target purified
[2] = target: MYC C-terminal region (amino acids 220-439) (UniProt P01106); experiment: co-IP; 293T cells transfected with the plasmids; lysates incubated with primary antibody overnight at 4°C, then Protein A/G magnetic beads 3 h at 4°C, four washes, Western blot; USP11-MYC also tested with DLGAP5 knockdown or overexpression
[3] = target: MYC N-terminal region (amino acids 1-221) (UniProt P01106); experiment: as above
[4] = target: MYC (exogenous; Flag-MYC or HA-MYC) (UniProt P01106); experiment: as above
[5] = target: endogenous MYC (human (endogenous in UM-UC-3)) (UniProt P01106); experiment: co-IP; endogenous proteins in BLCA cells (UM-UC-3; UM-UC-3-P and GEM-resistant UM-UC-3-R); Protein A/G magnetic beads, Western blot

Binder | binding [1] | binding [2] | binding [3] | binding [4] | binding [5]
B1 | binds | binds | binds | binds | 
B2 |  |  |  | binds | 
B3 |  |  |  | binds | 
B4 |  |  |  |  | binds

Source: publication PMC11840727
